According to PMC11445230:
Results are given in words; binding and its absence hold for the method and conditions named. In cells and extracts the contact can be indirect. Some entries that bind do so weakly or less than the wild type.

Amino acid sequences for entries named in this document (tags omitted). Residues count along the entry.
UniProt Q9Y653, residues 26-693: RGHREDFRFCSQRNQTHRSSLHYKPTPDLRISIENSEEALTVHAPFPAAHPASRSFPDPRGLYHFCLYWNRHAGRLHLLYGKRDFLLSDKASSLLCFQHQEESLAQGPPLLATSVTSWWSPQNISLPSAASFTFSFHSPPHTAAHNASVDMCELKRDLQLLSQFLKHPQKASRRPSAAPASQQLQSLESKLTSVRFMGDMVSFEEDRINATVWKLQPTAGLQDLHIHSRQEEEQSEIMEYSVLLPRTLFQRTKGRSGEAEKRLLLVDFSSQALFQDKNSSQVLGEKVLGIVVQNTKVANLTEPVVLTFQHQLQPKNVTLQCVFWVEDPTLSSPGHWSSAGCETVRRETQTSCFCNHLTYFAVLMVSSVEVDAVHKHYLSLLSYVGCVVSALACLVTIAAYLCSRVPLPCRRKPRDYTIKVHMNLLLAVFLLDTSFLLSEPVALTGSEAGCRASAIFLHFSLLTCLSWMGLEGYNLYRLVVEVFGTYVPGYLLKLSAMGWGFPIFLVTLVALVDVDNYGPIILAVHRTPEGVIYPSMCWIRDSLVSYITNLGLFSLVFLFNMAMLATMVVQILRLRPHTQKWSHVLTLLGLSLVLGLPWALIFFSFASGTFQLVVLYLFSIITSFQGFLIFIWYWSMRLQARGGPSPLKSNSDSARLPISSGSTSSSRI

B1: TGFBR1, exogenous, in 293T cells (receptor, UniProt P36897 34-503)
chain: LQCFCHLCTKDNFTCVTDGLCFVSVTETTDKVIHNSMCIAEIDLIPRDRPFVCAPSSKTGSVTTTYCCNQDHCNKIELPTTVKSSPGLGPVELAAVIAGPVCFVCISLMLMVYICHNRTVIHHRVPNEEDPSLDRPFISEGTTLKDLIYDMTTSGSGSGLPLLVQRTIARTIVLQESIGKGRFGEVWRGKWRGEEVAVKIFSSREERSWFREAEIYQTVMLRHENILGFIAADNKDNGTWTQLWLVSDYHEHGSLFDYLNRYTVTVEGMIKLALSTASGLAHLHMEIVGTQGKPAIAHRDLKSKNILVKKNGTCCIADLGLAVRHDSATDTIDIAPNHRVGTKRYMAPEVLDDSINMKHFESFKRADIYAMGLVFWEIARRCSIGGIHEDYQLPYYDLVPSDPSVEEMRKVVCEQKLRPNIPNRWQSCEALRVMAKIMRECWYANGAARLTALRIKKTLSQLSQQEGIKM
B2: TGFBR1, endogenous in MHCC97H cells (receptor, UniProt P36897 34-503)
chain: B1 chain

What was measured:
[1] = biological target: GPR56, exogenous, in 293T cells (UniProt Q9Y653); test: co-IP; exogenous GPR56 and TGFBR1 in 293T cells; IP-lysis buffer, antibody at 4 °C, Magnetic Agarose Beads, Western blot
[2] = biological target: GPR56, endogenous in MHCC97H cells (human (endogenous in MHCC97H)) (UniProt Q9Y653); test: co-IP; endogenous GPR56 and TGFBR1 in MHCC97H cells, with or without TGF-β1 treatment for 1 h (TGF-β1 augmented the interaction); IP-lysis buffer, antibody at 4 °C, Magnetic Agarose Beads, Western blot

Row | Binder | binding [1] | binding [2]
1 | B1 | binds | 
2 | B2 |  | binds
